The source of these data is patent US10946053B2, “Composition containing mixed extract of mulberry and Poria cocos bark for preventing, improving or treating neurodegenerative disorders” (NeuroBo Pharmaceuticals, Inc., priority 2014, dated 2021).

Test [1] relates to NGF (Nerve Growth Factor). The test can be described thus: NGF level measurement in brain (ELISA), normal animals. Conditions: extracts 100 mg/kg, Donepezil 1 mg/kg. The format is in vivo, ICR mouse. For orientation: An ELISA detects its analyte on a solid surface through an enzyme-linked reagent.
For the next test, the system named is SH-SY5Y cells. The test can be described thus: Cell protection effect in nerve cell line (MTT assay), Aβ42 toxicity. The format is cell-based. The conditions noted are these: Donepezil 10 μM. The procedure: The cytoprotective effect of herbal mixed extracts was measured using a MTT (3-(4,5-Dimethylthiazol-2-yl)-2,5-Diphenyltetrazolium Bromide) assay in a model that causes toxicity to nerve cell lines by artificially aggregated Aβ42.
(Tetrazolium dyes change colour on reduction, which living cells bring about.)

For a further test, the system named is beta amyloid (Aβ40). The test can be described thus: Measurement of beta amyloid production in brain (ELISA), normal animals. Type of test: in vivo, ICR mouse. The conditions noted are these: extracts 100 mg/kg, Donepezil 1 mg/kg.
The mark [2] stands for this setting: normal mice, 5 days administration, brain, per 1 mg protein.

In the case of `COc1cc2c(cc1OC)C(=O)C(CC1CCN(Cc3ccccc3)CC1)C2` (stereo not drawn) [Donepezil], in test [1] (normal mice brain), the “effect on NGF production in brain, in words” value is “did not affect NGF production”. In addition, the “NGF concentration” value in test [1] (setting [2]) is reported as 258.0 pg/mg. For the same molecule, the “cytoprotective activity, in words” value in the test on SH-SY5Y cells (SH-SY5Y cells, Aβ42) is given as “low level of cytoprotective activity”. The “MTT measurement value (% of Normal)” value in the test on SH-SY5Y cells (differentiated SH-SY5Y cells, Aβ42 48 hours, extracts 10 μg/ml) is given as 65.3 % of Normal. Also, the “effect on beta amyloid production, in words” value in the test on beta amyloid (Aβ40) (normal mice brain) is on record as “did not affect beta amyloid production”. Also, in the test with beta amyloid (Aβ40) (setting [2]), the “Aβ40 concentration” value is given as 168.8 pg/mg.
